Counter-ions that a name gives are not always drawn.
System: cough pulses
Assay: Citric acid aerosol cough test in guinea pigs, subcutaneous, 30 min (method of Friebel and Reichle), Comparative test 1
Type: in vivo
Settings: s.c., percent deviation vs log dose, 3-100 mg/kg
Description: In order to compare the anti-cough effectiveness of codeine phosphate with the effectiveness of the different isomers of glaucine hydrobromide, the testing method of Friebel and Reichle was used. 60 guinea pigs with weights between 200 and 300 g were divided up into ten groups of different sizes. Before administering the active substance, each animal was subjected, on the same day as the day of test with the active substance, for a period of 8 minutes to an aerosol of 20% citric acid, the animal being confined in a chamber at constant air pressure. During this control test the number of cough pulses was counted with the help of a pressure transmitter. From these measurements an average control value for each group was calculated. After this preliminary control test, there was given subcutaneously to each animal of each group a suspension of the active substance in 1% sodium carboxymethyl cellulose. After 30 minutes each animal was again exposed in the test chamber for 8 minutes to the aerosol of 20% citric acid and the number of cough pressure pulses recorded. The different active substances were administered in increasing doses ranging from 3 mg/kg to 100 mg/kg of body weight. Altogether eight different doses were given. The results were expressed as percent deviation from the average control value for the group on the same day, the deviation being entered in a diagram against the logarithm of the dose administered. From the resulting effectiveness curve, based on the logarithm of the dose, the coefficient of correlation and the ED50 were calculated for each active substance, by the regression analysis method of Downie and Heath (1965). The values obtained for codeine phosphate, for d-glaucine hydrobromide, for d,l-glaucine hydrobromide and for l-glaucine hydrobromide thirty minutes after administering the active substance are summarized in Table I.

Structure (SMILES): COc1cc2c(cc1OC)-c1c(OC)c(OC)cc3c1C(C2)N(C)CC3 (racemic) [d,l-glaucine hydrobromide]
- Rising slope of curve: -57.8

Structure (SMILES): COc1cc2c(cc1OC)-c1c(OC)c(OC)cc3c1[C@@H](C2)N(C)CC3 [l-glaucine hydrobromide]
- Rising slope of curve: -70.96

Structure (SMILES): COc1cc2c(cc1OC)-c1c(OC)c(OC)cc3c1[C@H](C2)N(C)CC3 [d-glaucine hydrobromide, reference compound]
- Rising slope of curve: -60.8

Source: patent publication US4370331A, “L-Glaucine containing composition for cough relief” (Karl O. Helm Aktiengesellschaft, priority 1977, dated 1983)
